From patent publication EP4621409A1, “NOVEL ANTIVIRAL PEPTIDE” (Daehannupharm Co., Ltd., priority 2022, dated 2024)
Where two headings read alike, the source gives them in different places. Not every detail of the peptide structures is certain; ends, links or a residue may be inferred. Some entries repeat one wording, which the source may state once for all of them. No end group written: not given here.

Key:
dengue virus [1] = assay: RNase digestion assay (micrococcal nuclease, RT-qPCR of viral RNA); format: biochemical; settings: for Ct value: RT-qPCR of viral RNA after micrococcal nuclease treatment; for Δ Ct: increase in Ct value compared to negative control (N.C.)
dengue virus [2] = assay: Antiviral efficacy against dengue virus, evaluation at specific concentrations (Vero cells, RT-qPCR); settings: for Δ Ct: increase in Ct value compared to negative control; for Ct value: virus and peptide 37°C 1 hour, Vero cells, MOI 0.03, 2 days
dengue virus [3] = system: dengue virus
[4] = Liposome rupture, TIRF microscope measurement, liposomes with various sizes; format: biochemical; settings: FIG. 53
[5] = compared to the negative control

In the case of “YNLFDLLIYIWNKIFDDY [SP-049, YNLFDLLIYIWNKIFDDY]”, the Ct value (dengue virus [1]; peptide 500 nM) is reported as 28.04, the “Δ Ct” value (dengue virus [1]; peptide 500 nM) is reported as 4.11 and the Ct value (dengue virus [1]; peptide 1000 nM) is reported as 28.79. For the same sequence, the “Δ Ct” value (dengue virus [1]; peptide 1000 nM) was 4.86, the “destruction of the lipid membrane of the virus (viral RNA degraded by RNase)” value (dengue virus [1]; peptide solution 2 µM and 1 µM mixed 1:1 with virus, 37°C 1 hour, micrococcal nuclease) was “destroyed the lipid membrane of the virus” and the “Δ Ct” value (dengue virus [2]; 30 nM peptide) was 5.76. The Ct value (dengue virus [2]; 30 nM peptide) was 26.20, the “Δ Ct” value (dengue virus [2]; 60 nM peptide) was 13.66 and the Ct value (dengue virus [2]; 60 nM peptide) was 34.09. For the same sequence, the “reduction of the amount of virus that infected the cells” value (dengue virus [2]; [5]) was “reducing the amount of virus that infected the cells compared to the negative control”, the “reduction of the level of cells infected by the virus” value (SARS-CoV-2 virus) was “reducing the level of cells infected by the virus” and the “Ct value” (dengue virus [3]; Conc. 0.49 nM) was 22.62. For the same sequence, the “Ct value” (dengue virus [3]; Conc. 0.98 nM) was 22.56, the “Ct value” (dengue virus [3]; Conc. 1.95 nM) was 22.87 and the “Ct value” (dengue virus [3]; Conc. 3.91 nM) was 23.00. For the same sequence, the “Ct value” (dengue virus [3]; Conc. 7.81 nM) was 25.38, the “Ct value” (dengue virus [3]; Conc. 15.63 nM) was 37.13 and the “Ct value” (dengue virus [3]; Conc. 31.25 nM) was 41.59. The “Ct value” (dengue virus [3]; Conc. 62.50 nM) was 39.68, the “reduction of the amount of virus that infected the cells” value (dengue virus [3]; [5]) was “reducing the amount of virus that infected the cells compared to the negative control” and the “destruction of the lipid membrane of liposomes (decrease in the fluorescence value)” value ([4]; 100 nM peptide flowed at 150 µL/min, liposomes 55 nm, 150 nm, 250 nm) was “lipid membrane of the liposomes labeled with a fluorescent substance was destroyed”. For the same sequence, the “dependence of normalized fluorescence intensity decrease on liposome size” value ([4]; 100 nM peptide, liposomes with various sizes) was “normalized fluorescence intensity of smaller liposomes decreases more rapidly than larger liposomes”.
